# From PubChem BioAssay AID624297 (National Center for Advancing Translational Sciences (NCATS), 2012)
# The whole screen tested about 340,000 compounds, of which about 6,200 (1.8%) were called active. The shares of active, inactive and inconclusive entries below differ from those in the screen. The call rests on the fitted dose curve; in most records, active means well fitted activation curve with a large enough effect; inconclusive means small, poorly fitted or top-dose-only effect; inactive means no such curve, though single readings can be large or run the other way. Potencies of inconclusive entries are doubtful fits and often do not repeat.
# Assay: A quantitative high throughput screen for small molecules that induce DNA re-replication in SW480 colon adenocarcinoma cells. Further: nearly all actives have a fitted effect of over 55% in size. On re-replication activation: % of control where 0% means no effect.
# Conditions: Hoechst DNA content imaging, 48 h; re-replication activation: at 46.1 µM (top of the series) unless noted
# Procedure, shortened: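 Treated cells incubate 48 hr (37 C, 5% CO2), are stained 40 min with Hoechst, and nuclear fluorescence is enumerated; a rise in nuclei with high DNA signal marks re-replication.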
# Potency means the concentration at half of the fitted maximal effect.
Compound,Potency,re-replication activation
O=C(Cc1cccs1)NCCSc1c(-c2ccc(Cl)cc2)[nH]c2ccccc12,"inconclusive: 16.4 µM [activator, partial curve, poor fit]",
CCCCC[n+]1cccc2c3ccccc3ccc21,inactive,
Cc1ccc(S(=O)OCC(=O)Nc2cc(Cl)ccc2N2CCOCC2)cc1 (stereo not given),"inconclusive: 23.1 µM [activator, single point]",
O=C1C=C(N2CCN(c3ccccn3)CC2)C(=O)c2c(O)ccc(O)c21,"inconclusive: 6.51 µM [activator, partial curve]",
COC(=O)c1sccc1NC(=O)Nc1ccccc1Cl,inactive,
O=C1CC(c2cc(F)ccc2F)c2cc3c(cc2N1)CCC3 (stereo not given),"inconclusive: 1.16 µM [activator, full curve, poor fit]",
CC(C)(C)Cc1nc(-c2ccccn2)no1,inactive,
CC(=O)Nc1ccc(NC(=S)NC(=O)/C=C/c2ccco2)cc1,inactive,
O=[N+]([O-])c1cccc(/C=N/N2CCN(c3ccccn3)CC2)c1,"inconclusive: 29.1 µM [activator, single point]",
Cc1cc2c(cc1C)C(c1ccccc1F)CC(=O)N2 (stereo not given),"inconclusive: 18.4 µM [activator, single point]",
CCCSc1cc(N2CCN(C)CC2)nc(-c2ccc(OC)cc2)n1,"inconclusive: 18.4 µM [activator, single point]",
CCCCCOC(=O)Cn1c(N2CCCCCC2)nc2c1c(=O)[nH]c(=O)n2C,inactive,
Cn1c(=O)c2c(ncn2Cc2nnc(N)s2)n(C)c1=O,"inconclusive: 16.4 µM [activator, single point]",
Cc1nn(-c2ccccc2)c(N2CCCC2)c1/C=N/NC(=O)c1ccccc1O,inactive,
CC1=NNC(=O)/C1=C\c1cn(-c2ccccc2)nc1-c1ccccc1,inactive,
O=C(NNC(=O)c1ccc(O)cc1O)c1ccc(Cl)cc1,"inconclusive: 29.1 µM [activator, partial curve, poor fit]",
NS(=O)(=O)c1ccc(CCNS(=O)(=O)Cc2ccc(Cl)cc2)cc1,inactive,
Cc1ccc(C(=O)NC(=C(Cl)Cl)S(=O)(=O)c2ccc(C)cc2)cc1,"inconclusive: 23.1 µM [activator, partial curve, poor fit]",
CCOC(=O)C1=C(C)N(CCCC(=O)O)C(=O)NC1c1cccs1 (stereo not given),inactive,
c1ccc(COc2cccc(CN3CCN(c4ccccn4)CC3)c2)cc1,"inconclusive: 32.6 µM [activator, partial curve, poor fit]",
COc1cccc(C(c2nnnn2Cc2ccc(F)cc2)N2CCC(C(N)=O)CC2)c1OC (stereo not given),inactive,
CC(C)C[C@H](NC(=O)c1[nH]cnc1C(=O)N[C@H](C)c1ccccc1)C(=O)OC(C)(C)C,"inconclusive: 1.16 µM [activator, single point]",
Nc1ccc(Cl)c(-c2nc3ncccc3o2)c1,"inconclusive: 0.092 µM [activator, full curve, poor fit]",
Cn1c(SCC(=O)N2c3ccccc3Sc3ccccc32)nc2ccccc21,,inconclusive: 76% [activator]

Compound,Potency,re-replication activation
Cc1[nH]c2ccccc2c1N=Nc1cccc(C(=O)O)c1,"inconclusive: 0.58 µM [activator, full curve, poor fit]",
CCN(CC)CCCNc1nc2cc(OC)c(OC)cc2c2nc(-c3ccccc3)nn12,"inconclusive: 18.4 µM [activator, single point]",
CCC1CSC(Nc2ccc(C(=O)/C=C/c3ccc(Oc4ccccc4)cc3)cc2)=N1 (stereo not given),"inconclusive: 20.6 µM [activator, single point]",
O=C1NC(=O)c2cc3ccccc3cc21,inactive,
FC(F)(F)c1cc(Oc2ccccc2Cl)nc(-c2ccccn2)n1,"inconclusive: 7.31 µM [activator, single point]",
Cc1ccnc(SCC(=O)c2ccc(Br)cc2)c1C#N,"inconclusive: 29.1 µM [activator, single point]",
COc1cccc(/C=N/NC(=O)c2oc3nc(-c4ccccc4)cc(-c4ccco4)c3c2N)c1,"inconclusive: 20.6 µM [activator, single point]",
CCOC(=O)c1ccccc1NC(=O)c1c(F)c(F)c(F)c(F)c1F,"inconclusive: 20.6 µM [activator, single point]",
Cc1ccc(C(=O)NC(C)c2ccc(-n3ccnc3)cc2)o1 (stereo not given),"inconclusive: 25.9 µM [activator, partial curve, poor fit]",
COc1ccc2c(ccn2S(=O)(=O)c2ccccc2)c1,inactive,
O=C1c2ccccc2C(=O)N1CCCCN(C(=O)c1cc([N+](=O)[O-])cc([N+](=O)[O-])c1)c1ccc(Cl)cc1,inactive,
Cc1ccc(NC(=O)Nc2nnc(-c3ccncc3)s2)cc1,"inconclusive: 0.58 µM [activator, full curve, poor fit]",
Oc1ccc(-c2nc(-c3ccc(F)cc3)c(-c3ccncc3)[nH]2)cc1,active: 3.55 µM,
Cc1cc(O)c(C(C)C)cc1NC(=O)Nc1cc(Cl)ccc1Cl,"inconclusive: 29.1 µM [activator, single point]",
CCCCn1c(N)c(N(CC(C)C)C(=O)CCCc2nc3ccccc3c(=O)[nH]2)c(=O)[nH]c1=O,inactive,
NNC(=O)CN1CCN(c2ncc(C(F)(F)F)cc2Cl)CC1,inactive,
COc1ccc(C2=CSC3=NCCN23)cc1Br,"inconclusive: 25.9 µM [activator, single point]",
Nc1nc(NCCN2CCOCC2)nc(NCc2ccccc2)c1[N+](=O)[O-],"inconclusive: 32.6 µM [activator, partial curve, poor fit]",
CN(C(=O)c1cccc(NC(=O)Cc2ccc(NC(=O)C3CCCN(C(=O)C4CC4)C3)cc2)c1)C1CCCC1 (stereo not given),inactive,
Cc1ccc(NC(=O)CCn2nnc3ccccc32)c(C)c1,"inconclusive: 3.66 µM [activator, full curve, poor fit]",
CC(Oc1ccccc1F)C(=O)/C=C/N(C)C (stereo not given),inactive,
COC1C=COC2(C)Oc3c(C)c(O)c4c(O)c(c(CN5CCN(C)CC5)c(O)c4c3C2=O)NC(=O)C(C)=CC=CC(C)C(O)C(C)C(O)C(C)C(OC(C)=O)C1C (stereo not given),"inconclusive: 20.6 µM [activator, single point]",
CS(=O)(=O)N1CCc2cc(-c3csc(NC(=O)Cc4cccs4)n3)ccc21,inactive,
Cn1c(SCC(=O)C(C)(C)C)nnc1-c1ccc(F)cc1,inactive,

# A different layout for some results above:
Compound	Potency	re-replication activation
CCN(CC)CCCNc1nc2cc(OC)c(OC)cc2c2nc(-c3ccccc3)nn12	inconclusive: 18.4 µM [activator, single point]	
CCC1CSC(Nc2ccc(C(=O)/C=C/c3ccc(Oc4ccccc4)cc3)cc2)=N1 (stereo not given)	inconclusive: 20.6 µM [activator, single point]	
CCOC(=O)c1ccccc1NC(=O)c1c(F)c(F)c(F)c(F)c1F	inconclusive: 20.6 µM [activator, single point]	
CN(C(=O)c1cccc(NC(=O)Cc2ccc(NC(=O)C3CCCN(C(=O)C4CC4)C3)cc2)c1)C1CCCC1 (stereo not given)	inactive	
Cn1c(SCC(=O)C(C)(C)C)nnc1-c1ccc(F)cc1	inactive	

# The results go on:

Compound,Potency,re-replication activation
COc1ccc(NS(=O)(=O)c2cccc(N/C(=N\S(=O)(=O)c3ccccc3)c3ccc(F)cc3)c2)cc1,"inconclusive: 29.1 µM [activator, single point]",
COc1ccc2c(c1)C1C=CCC1C(c1cc3c(cc1Br)OCO3)N2 (stereo not given),active: 9.2 µM,
Cc1ccccc1OCCC(=O)OCC(=O)Nc1ccc(N2CCOCC2)cc1,inactive,
CCC(CC)C(=O)c1c[nH]c(C(=O)O)c1,"inconclusive: 1.84 µM [activator, partial curve, poor fit]",
Cc1ccc(NC(=O)CN(Cc2ccco2)Cc2ccccc2O)cc1C,"inconclusive: 29.1 µM [activator, single point]",
O=C(NC1CCCc2ccccc21)C1CCN(C(=O)c2sccc2-n2cccc2)CC1 (stereo not given),inactive,
COc1ccc2[nH]c(C(=O)N/N=C/c3ccccc3OC)cc2c1,"inconclusive: 2.91 µM [activator, single point]",
Cc1cc(N/N=C/c2ccc(O)cc2O)nc(-c2ccccc2O)n1,"inconclusive: 3.26 µM [activator, full curve]",
C/C(=N\NC(=O)c1ccc(Cl)cc1)c1cccc(NC(=O)c2cccnc2)c1,"inconclusive: 29.1 µM [activator, partial curve, poor fit]",
O=C(CCCCCn1c(=S)[nH]c2cc3c(cc2c1=O)OCO3)N1CCN(C2CCCCC2)CC1,"inconclusive: 29.1 µM [activator, single point]",
COc1ccc(-c2cc3ccccc3n2CC(O)Cn2nc(C)cc2C)cc1 (stereo not given),"inconclusive: 22.4 µM [activator, partial curve, poor fit]",
Cc1ccc(CNn2cn[nH]c2=S)cc1,inactive,
Cc1ccc(NC(=O)CC2Oc3ccc(C)cc3NC2=O)c(C)c1 (stereo not given),"inconclusive: 20.6 µM [activator, single point]",
CC(C)OC(=O)CC(=O)c1sc2nc3c(cc2c1N)CN(C)CC3,inactive,
CCCCCn1c(=O)[nH]c2cc(C(=O)NC3CCN(Cc4ccccc4)CC3)ccc2c1=O,"inconclusive: 0.731 µM [activator, full curve]",
CN(Cc1ccccc1)c1nc2c(c(=O)[nH]c(=O)n2C)n1CCOc1ccccc1,inactive,
O=C(/C=C/c1c(F)cccc1Cl)c1ccc(F)cc1,"inconclusive: 29.1 µM [activator, single point]",
OCC[C@@H]1C[C@H](O)[C@@H](O)[C@]2(CCCc3ccccc3O2)O1,inactive,
CN(C)c1ccc(/C=C/c2nnnn2-c2ccccc2)cc1,"inconclusive: 25.9 µM [activator, single point]",
C=CCn1c(COc2cc(C)ccc2C(C)C)nnc1SCC(=O)c1c(N)n(C)c(=O)n(C)c1=O,"inconclusive: 29.1 µM [activator, single point]",
O=C(NCCc1c[nH]c2ccccc12)C(=O)NCC1OCCN1S(=O)(=O)c1cc(F)ccc1F (stereo not given),"inconclusive: 20.6 µM [activator, single point]",
COc1cc(C(=O)Nc2ccc(NC(C)=O)cc2)ccc1OCc1ccccc1,"inconclusive: 0.13 µM [activator, full curve, poor fit]",
